Screen size: about 330,000 compounds; about 7,700 (2.3%) were called active. The inconclusive results got no clear call from the source; some entries with a clear call stand among them for comparison. Calls follow the shape of the dose curve; as a rule, active = well fitted inhibition curve with a large enough effect; inconclusive = small, poorly fitted or top-dose-only effect, or effect the other way; inactive = flat fitted curve, though single readings scatter. Where the call is inconclusive, the potency comes from a doubtful curve fit.
Assay: qHTS screen for small molecules that inhibit ELG1-dependent DNA repair in human embryonic kidney (HEK293T) cells expressing luciferase-tagged ELG1; also: nearly all actives have a fitted effect of over 55% in size
Conditions: HEK293T ELG1-luciferase reporter, luminescence, 16 h, DNA damage induced by 5-fluorouridine; activity change, negative = inhibition: at 46.1 µM (top of the series)
Summary of the method: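 In this reporter screen, reduction of luminescence relative to DMSO vehicle indicated activity. Compounds and 5-fluorouridine were added together to 2,000 cells per well, incubated for 16 hr at 37 °C, then developed with ONE-Glo.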
% is scaled to controls: 0 for no effect and ±100 for the full control effect; potency is read from the fitted curve at half-maximal effect.

SMILES	activity change, negative = inhibition	Potency
Cc1ccc(C)c(N(C(=O)c2nsc(Cl)c2Cl)C(C(=O)NC2CCCC2)c2ccc(O)cc2)c1 (configuration not stated)	inactive: -21.5%	
Cc1ccc(C)c(N2CCN(C(=O)COc3cc(=O)n(C)c4ccccc34)CC2)c1		inconclusive: 23.1 µM [inhibitor, single point]
COc1ccc(Br)cc1S(=O)(=O)NCCCN1CCOCC1	inactive: -2.63%	
CC(C(=O)N1CCCCCC1)c1ccc([N+](=O)[O-])cc1 (configuration not stated)	inactive: 3.65%	
Cc1ccc(NC(=O)c2cc(-c3ccccc3)nn2-c2ccccc2)cc1		inconclusive: 18.4 µM [inhibitor, partial curve]
CCCC(=O)Nc1ccc(Cl)c(NC(=S)NC(=O)C(C)C)c1		inconclusive: 9.2 µM [inhibitor, partial curve]
CCc1nc(SCc2ccc(C(=O)OC)o2)c2c(=O)n(C)c(=O)n(C)c2n1		inconclusive: 25.9 µM [inhibitor, partial curve]
CNc1nc2c(c(=O)n(C)c(=O)n2C)n1CCCc1ccccc1		inconclusive: 11.2 µM [inhibitor, partial curve]
CC(Cc1cccs1)NC(=O)Nc1ccc(Cl)cc1 (configuration not stated)		inconclusive: 9.2 µM [activator, partial curve]
O=C(N/N=C/c1ccc(Cl)c([N+](=O)[O-])c1)c1cc(-c2ccc3c4c(cccc24)CC3)n[nH]1		inconclusive: 29.1 µM [inhibitor, single point]
CC(=O)OCC(OC(C)=O)C(OC(C)=O)C(OC(C)=O)C(=O)Nc1ccc(C)cc1 (configuration not stated)		inconclusive: 14.6 µM [activator, single point]
O=C(C[C@H]1C[C@H](C(=O)N2CCCCC2)[C@@]2(CCc3ccccc3)c3[nH]c4ccc(Cl)cc4c3CCN2C1=O)NCc1ccco1	inactive: -4.33%	
C=CCC1(CC=C)CCCN1C(=O)c1cc(COc2ccc(F)c(F)c2)on1		inconclusive: 29.1 µM [inhibitor, single point]
COc1ccccc1Nc1nc2ccccc2n2cnnc12	inactive: 0.431%	
N#Cc1ccc(-c2csc(NNC(=O)c3ccc(Br)cc3)n2)cc1		inconclusive: 20 µM [inhibitor, partial curve, poor fit]
CC(=O)C[C@H](O)CC(=O)[C@H]1OC(=O)CCCCCCCc2ccccc21	inactive: 12.2%	
Cc1ccc(N=Nc2c(O)n(CN3CCOCC3)c3ccccc23)cc1		inconclusive: 5.17 µM [activator, partial curve]
O=C(CCc1ccc(Oc2cc([N+](=O)[O-])cc([N+](=O)[O-])c2)cc1)N1CCCCCC1		inconclusive: 16.4 µM [inhibitor, partial curve, poor fit]
C/C(=N\NC(=O)C1CCCC1)c1ccc(C(C)C)cc1		inconclusive: 18.3 µM [activator, single point]
Cc1ccc(C(=O)c2sc3nsc(C)c3c2N)cc1		inconclusive: 1.3 µM [activator, partial curve]
COc1ccc(C(=S)NC2CCCCC2)cc1		inconclusive: 16.4 µM [activator, partial curve]
O=C(NCc1cccs1)c1ccccc1[N+](=O)[O-]	inactive: 0.623%	
CC(=O)c1ccc(N(C(=O)c2ccco2)C(C(=O)NC2CCCC2)c2ccc(N3CCOCC3)cc2)cc1 (configuration not stated)	inactive: -9.31%	

SMILES	activity change, negative = inhibition	Potency
CCc1nnc(NC(=O)CSCc2cc(=O)n3nc(C)sc3n2)s1		inconclusive: 16.4 µM [activator, partial curve, poor fit]
Cc1ccc(C(=O)Nc2ccccc2C(=O)N2CC3(C)CC2CC(C)(C)C3)cc1 (configuration not stated)		active: 23.1 µM
N=C1/C(=C/c2ccc(OCc3ccccc3F)cc2)C(=O)N=C2SC(CC(=O)N3CCOCC3)=NN12		inconclusive: 20.6 µM [activator, partial curve]
CC(C)n1c(SCC(=O)N2c3ccccc3Sc3ccccc32)nc2c1c(=O)n(C)c(=O)n2C	inactive: -18.9%	
O=C(CC1C(=O)NCCN1C(=O)Nc1ccccc1)Nc1ccc2c(c1)OCO2 (configuration not stated)		inconclusive: 29.1 µM [inhibitor, single point]
Cc1nc(C(=O)NC2CCCCC2)sc1C1(C)CC(c2cccc([N+](=O)[O-])c2)=NO1 (configuration not stated)		inconclusive: 25.9 µM [inhibitor, partial curve, poor fit]
Cc1c[nH]c2cccc(OCC(O)CNC(C)(C)C)c12 (configuration not stated)	inactive: 19.4%	
Cc1ccc(OCc2ccc(C(=O)Nc3nccs3)o2)cc1		inconclusive: 25.1 µM [activator, single point]
CCCCCC(=O)Nc1cc(S(=O)(=O)N2CCCCC2)ccc1N1CCOCC1		inconclusive: 9.2 µM [inhibitor, partial curve]
C#CCOCCOCCOCCNc1nc(N2CCN(C(=O)CCCCCCCCCCNC(=O)Cn3cc(CCCCCN)nn3)CC2)nc(N2CCN(C(=O)CCCCCCCCCCNC(=O)[C@@H]([C@H](C)O)n3cc(C)nn3)CC2)n1		inconclusive: 25.1 µM [inhibitor, single point]
c1ccc(CCn2c3ccccc3c3nnc(SCc4ccc5nonc5c4)nc32)cc1	inactive: -10.8%	
CCc1[nH]c(=S)c(C#N)c(-c2ccccc2)c1C(=O)OC	inactive: -6.49%	
CCN(Cc1ccccc1)C(=O)COc1ccccc1	inactive: -0.913%	
COCCNc1nc(CSc2ccccc2)nc2sc(C)c(C)c12		inconclusive: 29.1 µM [inhibitor, single point]
CCOc1ccc(NC2=CC(=O)CC(c3ccco3)C2)cc1 (configuration not stated)		inconclusive: 10.3 µM [activator, partial curve, poor fit]
Cc1ccc(C2NC(=O)c3c(sc(C)c3C)N2)c(O)c1 (configuration not stated)		inconclusive: 18.4 µM [activator, single point]
O=C(Nc1ccc(F)cc1)c1ccc2nc[nH]c2c1		inconclusive: 18.3 µM [activator, partial curve]
COc1ccc(S(=O)(=O)N2CCN(Cc3ccc(OC)c(OC)c3)CC2)cc1		inconclusive: 16.4 µM [inhibitor, partial curve, poor fit]
O=C1[C@@H]2Cc3c([nH]c4ccccc34)C(c3cccc([N+](=O)[O-])c3)N2C(=O)CN1C1CCN(Cc2ccccc2)CC1 (some centres not stated)		inconclusive: 32.6 µM [inhibitor, single point]
COCCCn1cc(C(=O)c2ccccc2OCC(=O)Nc2cccc(F)c2)cc(C#N)c1=O		inconclusive: 18.3 µM [inhibitor, partial curve, poor fit]
CC1CCCC(NC(=O)CNCc2ccccc2F)C1C (configuration not stated)	inactive: -5.93%	
Cc1ccc(C(C)NC(=O)CSc2ccc(S(=O)(=O)N3CCOCC3)cn2)cc1C (configuration not stated)	inactive: -1.37%	
COc1ccc(Nc2nc(-c3cccnc3)nc3ccccc23)cn1		inconclusive: 29.1 µM [inhibitor, single point]

SMILES	activity change, negative = inhibition	Potency
C=CCn1c(C)nc2c(sc3nc4c(cc32)COC(C)(C)C4)c1=O		inconclusive: 10.3 µM [activator, partial curve]
COc1cc(/C=N/Nc2nc3ccccc3[nH]2)ccc1O		inconclusive: 4.61 µM [activator, full curve, poor fit]
O=C(Nc1ccc(COc2ccccc2)cc1)c1cccc([N+](=O)[O-])c1		inconclusive: 20.6 µM [activator, single point]
CCCCC(=O)N/N=C/c1sccc1C	inactive: 28.5%	
COc1ccc(NC(=O)c2cc(-c3cc(C)cc(C)c3O)n[nH]2)cc1Cl		active: 20.6 µM
Clc1ccc(-n2nnc(-c3cccnc3Cl)n2)cn1		inconclusive: 23.1 µM [activator, partial curve]
COc1ccc(C(=S)N2CCOCC2)cc1OC(=O)c1ccccc1	inactive: -7.96%	
O=C1CSc2ccc(S(=O)(=O)N3CCN(c4ccccc4F)CC3)cc2N1		inconclusive: 16.4 µM [inhibitor, partial curve, poor fit]
O=C(Nc1nnc(SCC(=O)N2CCOCC2)s1)c1ccccc1Cl		inconclusive: 11.6 µM [activator, partial curve]
Cc1c(C(=O)Nc2ccc(Cl)cc2)c2ccccn2c1C(=O)c1ccccc1	inactive: 11.7%	
CCOc1ccc(C(=O)/C=C/Nc2ccc(S(=O)(=O)Nc3onc(C)c3C)cc2)cc1		inconclusive: 13 µM [activator, partial curve]
COc1cc(/C=C/C(=O)OCC(=O)N2c3ccccc3NC(=O)C2(C)C)cc(OC)c1OC		active: 10.3 µM
Cc1cc(OC(C)C(=O)NC2CC(C)(C)NC(C)(C)C2)c2c(C)cc(=O)oc2c1 (configuration not stated)		inconclusive: 20.6 µM [activator, partial curve]
CC(C)(C)c1ccc(-n2ncc3c2CCCC3NC(=O)CCn2cncn2)cc1 (configuration not stated)	inactive: -6.43%	
Cc1ccc(C(=O)OCC(=O)Nc2cc(F)ccc2F)cc1NC(=O)c1ccco1		inconclusive: 16.4 µM [inhibitor, partial curve, poor fit]
Cc1cccn2c(NC(=O)c3ccccc3F)c(-c3ccccc3)nc12	inactive: -2.79%	
COc1ccccc1N=c1scc(-c2ccc3c(c2)NC(=O)CO3)n1CC1CCCO1 (configuration not stated)		active: 16.4 µM
Cc1cc(C)cc(C(=O)NCCC(=O)NCc2cc(=O)n(C)c(=O)n2C)c1	inactive: 14.7%	
N#Cc1ccc(-c2ccc(F)cc2)nc1Sc1ccc(F)cc1		inconclusive: 3.66 µM [activator, single point]
CC(C)n1nc(C(=O)OCC(=O)c2c[nH]c3ccccc23)c2ccccc2c1=O		inconclusive: 29.1 µM [inhibitor, single point]
Cc1cccc(-c2cc3nc(-c4ccccc4)cc(N4CCC5(CC4)OCCO5)n3n2)c1		inconclusive: 9.2 µM [inhibitor, partial curve, poor fit]

Reference: PubChem BioAssay AID504467 (National Center for Advancing Translational Sciences (NCATS), 2011)
